Experimental data reported in PubChem BioAssay AID248 (DTP/NCI, 2004).
The list shows only some results of the screen, not a fair sample: it gathers tests that were run many times, whatever their T/C, doses with no T/C, and many T/C values between a quarter and a half above the control. Other doses and runs of a compound stand elsewhere. T/C gives the treated animals as a percentage of the vehicle group. Some doses have a count of surviving animals in place of a T/C: the source files T/C as zero there, which appears to mark a toxic dose or a test without result, not a measured value. Some survivor counts are full or nearly so, which does not show that the dose was tolerated: survival well below the control is almost never listed, so the zero probably covers shortened survival too. Survivors were counted at the toxicity check, usually on the fifth day, unless a day is given; later deaths do not show. Schedule codes are those of the source, read here as Q, the interval in days (D) or hours (H), X, the number of doses. For survival time, the PubChem record calls one and a half times the control and up active, and a quarter to a half above the control has no call in these data; cut-offs in other NCI protocols can differ.

Tested on: L1210 leukemia ip in BDF1 mice, survival T/C
Assay: NCI In Vivo Anticancer Drug Screen. Data for tumor model L1210 Leukemia (intraperitoneal) in B6D2F1 (BDF1) mice
Details: T/C endpoint: mean survival time, higher T/C = longer survival

O=S1(=O)CCCCC1C(O)(c1ccccc1)c1ccccc1 (stereo unspecified)
survivor count (dose: 100.0 mg/kg/injection, schedule: Q04DX002 (ip), vehicle: saline with Tween-80): 2 of 3
survivor count (dose: 200.0 mg/kg/injection, schedule: Q04DX002 (ip), vehicle: saline with Tween-80): 0 of 3
survivor count (dose: 400.0 mg/kg/injection, schedule: Q04DX002 (ip), vehicle: saline with Tween-80): 0 of 3

CCCCNC(=O)C1C=C2c3cccc4[nH]cc(c34)CC2N(C)C1 (stereo unspecified)
survivor count (dose: 100.0 mg/kg/injection, schedule: Q01DX009 (ip), vehicle: Klucel (hydroxypropylcellulose) (HPC)): 2 of 6
survivor count (dose: 200.0 mg/kg/injection, schedule: Q01DX009 (ip), vehicle: Klucel (hydroxypropylcellulose) (HPC)): 0 of 6
survivor count (dose: 400.0 mg/kg/injection, schedule: Q04DX003 (ip), vehicle: Klucel (hydroxypropylcellulose) (HPC)): 1 of 6

CC(=O)C(CCC#N)(CCC#N)C(C)=O
T/C (dose: 200.0 mg/kg/injection, schedule: Q04DX002 (ip), vehicle: Klucel (hydroxypropylcellulose) (HPC)): 125 % of control

CC(C)(C)N=C=N[N+](C)(C)Cc1ccccc1
survivor count (dose: 50.0 mg/kg/injection, schedule: Q01DX009 (ip), vehicle: saline): 2 of 6
survivor count (dose: 100.0 mg/kg/injection, schedule: Q01DX009 (ip), vehicle: saline): 0 of 6
survivor count (dose: 200.0 mg/kg/injection, schedule: Q01DX009 (ip), vehicle: saline): 0 of 6
survivor count (dose: 400.0 mg/kg/injection, schedule: Q01DX009 (ip), vehicle: saline): 0 of 6
